By UniProt entry, the sequences of proteins in these tests, tags left out. Where a name states a change or a piece, a line headed by the entry shows the natural chain unless it says otherwise.
UniProt P97315: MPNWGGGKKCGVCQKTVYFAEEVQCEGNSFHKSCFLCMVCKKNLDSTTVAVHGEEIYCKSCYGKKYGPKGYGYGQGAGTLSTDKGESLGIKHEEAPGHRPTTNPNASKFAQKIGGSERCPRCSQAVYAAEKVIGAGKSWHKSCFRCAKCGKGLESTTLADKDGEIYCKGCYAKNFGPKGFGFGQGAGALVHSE
UniProt P56873: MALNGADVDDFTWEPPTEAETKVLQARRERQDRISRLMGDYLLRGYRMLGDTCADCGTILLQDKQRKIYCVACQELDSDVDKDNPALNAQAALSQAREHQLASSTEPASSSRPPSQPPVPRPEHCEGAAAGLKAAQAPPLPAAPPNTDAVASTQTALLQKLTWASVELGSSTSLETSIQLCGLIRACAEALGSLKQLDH
UniProt P70399: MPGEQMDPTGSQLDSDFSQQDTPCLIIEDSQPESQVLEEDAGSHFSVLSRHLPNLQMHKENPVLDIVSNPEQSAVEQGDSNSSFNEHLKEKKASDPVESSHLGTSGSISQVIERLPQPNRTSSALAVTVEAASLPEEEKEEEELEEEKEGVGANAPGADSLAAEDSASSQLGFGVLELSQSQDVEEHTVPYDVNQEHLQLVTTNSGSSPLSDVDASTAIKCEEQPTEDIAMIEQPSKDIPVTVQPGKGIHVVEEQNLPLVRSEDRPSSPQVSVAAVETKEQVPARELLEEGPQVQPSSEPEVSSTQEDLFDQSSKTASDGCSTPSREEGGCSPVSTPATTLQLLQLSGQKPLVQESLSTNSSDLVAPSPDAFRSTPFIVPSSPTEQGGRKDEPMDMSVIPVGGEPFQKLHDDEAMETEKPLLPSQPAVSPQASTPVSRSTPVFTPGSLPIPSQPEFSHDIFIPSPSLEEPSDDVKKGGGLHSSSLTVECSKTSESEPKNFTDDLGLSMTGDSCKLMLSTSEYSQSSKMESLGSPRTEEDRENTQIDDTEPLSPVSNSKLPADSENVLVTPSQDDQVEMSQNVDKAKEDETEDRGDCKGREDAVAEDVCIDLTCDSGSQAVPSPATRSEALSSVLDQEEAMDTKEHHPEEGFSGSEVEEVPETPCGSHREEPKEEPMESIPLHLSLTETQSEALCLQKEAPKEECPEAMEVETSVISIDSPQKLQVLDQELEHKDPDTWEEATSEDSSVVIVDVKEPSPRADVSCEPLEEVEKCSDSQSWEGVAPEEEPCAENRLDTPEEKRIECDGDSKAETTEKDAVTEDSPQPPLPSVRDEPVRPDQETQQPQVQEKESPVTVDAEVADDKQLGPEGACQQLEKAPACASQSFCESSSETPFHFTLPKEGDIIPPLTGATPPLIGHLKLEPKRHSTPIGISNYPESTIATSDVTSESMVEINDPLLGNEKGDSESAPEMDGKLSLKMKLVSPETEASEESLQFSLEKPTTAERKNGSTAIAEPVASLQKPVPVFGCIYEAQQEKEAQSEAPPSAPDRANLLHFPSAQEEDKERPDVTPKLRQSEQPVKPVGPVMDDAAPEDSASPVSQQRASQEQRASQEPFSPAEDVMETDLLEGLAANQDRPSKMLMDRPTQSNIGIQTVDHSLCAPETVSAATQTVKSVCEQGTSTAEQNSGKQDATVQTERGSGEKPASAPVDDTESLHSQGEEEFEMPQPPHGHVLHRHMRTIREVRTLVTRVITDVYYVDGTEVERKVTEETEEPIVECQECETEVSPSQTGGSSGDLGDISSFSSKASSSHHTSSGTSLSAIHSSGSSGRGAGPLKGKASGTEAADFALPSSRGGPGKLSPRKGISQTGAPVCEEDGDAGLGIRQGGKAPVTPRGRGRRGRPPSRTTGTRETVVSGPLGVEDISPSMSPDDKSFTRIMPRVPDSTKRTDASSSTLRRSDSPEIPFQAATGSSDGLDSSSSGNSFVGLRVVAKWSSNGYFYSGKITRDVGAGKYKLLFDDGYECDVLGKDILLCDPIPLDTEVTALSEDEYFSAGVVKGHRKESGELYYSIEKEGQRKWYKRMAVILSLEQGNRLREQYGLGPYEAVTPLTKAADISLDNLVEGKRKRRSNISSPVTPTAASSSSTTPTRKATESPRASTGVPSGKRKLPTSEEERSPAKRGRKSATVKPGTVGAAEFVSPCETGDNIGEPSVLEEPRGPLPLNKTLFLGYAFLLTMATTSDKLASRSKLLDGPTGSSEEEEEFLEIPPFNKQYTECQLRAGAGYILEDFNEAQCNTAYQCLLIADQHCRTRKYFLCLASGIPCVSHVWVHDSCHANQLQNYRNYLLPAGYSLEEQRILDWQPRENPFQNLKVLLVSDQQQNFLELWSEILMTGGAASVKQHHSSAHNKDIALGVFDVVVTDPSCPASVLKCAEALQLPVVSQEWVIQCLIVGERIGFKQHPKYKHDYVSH
UniProt P70195: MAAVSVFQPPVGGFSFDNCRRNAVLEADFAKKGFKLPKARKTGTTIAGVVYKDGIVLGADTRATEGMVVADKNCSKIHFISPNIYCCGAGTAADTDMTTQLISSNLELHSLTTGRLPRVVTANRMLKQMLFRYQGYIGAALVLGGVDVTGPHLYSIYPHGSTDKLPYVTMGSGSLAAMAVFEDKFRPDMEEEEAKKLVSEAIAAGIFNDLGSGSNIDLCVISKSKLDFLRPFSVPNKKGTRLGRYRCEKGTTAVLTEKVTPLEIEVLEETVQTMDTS
UniProt P97450: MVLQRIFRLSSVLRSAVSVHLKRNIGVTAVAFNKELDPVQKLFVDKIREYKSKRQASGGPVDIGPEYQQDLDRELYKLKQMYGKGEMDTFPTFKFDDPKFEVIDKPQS
UniProt P70387: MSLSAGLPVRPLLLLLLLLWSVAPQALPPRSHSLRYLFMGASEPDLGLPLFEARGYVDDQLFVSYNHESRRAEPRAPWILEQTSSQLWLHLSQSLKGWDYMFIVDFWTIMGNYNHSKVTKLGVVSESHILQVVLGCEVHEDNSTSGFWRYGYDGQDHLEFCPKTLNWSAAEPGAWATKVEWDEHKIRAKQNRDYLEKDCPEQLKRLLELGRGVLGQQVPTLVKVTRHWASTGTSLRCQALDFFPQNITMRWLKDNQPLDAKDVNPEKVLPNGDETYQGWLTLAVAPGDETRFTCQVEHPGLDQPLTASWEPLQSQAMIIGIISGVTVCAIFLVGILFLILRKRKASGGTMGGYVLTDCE
UniProt P63254: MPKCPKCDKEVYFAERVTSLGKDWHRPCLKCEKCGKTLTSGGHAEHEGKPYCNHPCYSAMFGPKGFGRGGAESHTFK
UniProt P97355: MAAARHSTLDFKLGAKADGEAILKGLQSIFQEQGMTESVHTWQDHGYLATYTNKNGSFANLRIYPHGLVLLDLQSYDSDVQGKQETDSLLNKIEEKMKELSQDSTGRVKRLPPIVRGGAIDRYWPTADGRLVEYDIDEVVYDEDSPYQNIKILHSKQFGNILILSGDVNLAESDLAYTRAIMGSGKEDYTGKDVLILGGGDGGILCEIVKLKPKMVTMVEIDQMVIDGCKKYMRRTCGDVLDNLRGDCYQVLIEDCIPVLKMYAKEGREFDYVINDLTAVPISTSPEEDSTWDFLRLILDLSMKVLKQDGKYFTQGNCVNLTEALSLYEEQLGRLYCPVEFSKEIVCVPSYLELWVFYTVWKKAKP
UniProt P70303: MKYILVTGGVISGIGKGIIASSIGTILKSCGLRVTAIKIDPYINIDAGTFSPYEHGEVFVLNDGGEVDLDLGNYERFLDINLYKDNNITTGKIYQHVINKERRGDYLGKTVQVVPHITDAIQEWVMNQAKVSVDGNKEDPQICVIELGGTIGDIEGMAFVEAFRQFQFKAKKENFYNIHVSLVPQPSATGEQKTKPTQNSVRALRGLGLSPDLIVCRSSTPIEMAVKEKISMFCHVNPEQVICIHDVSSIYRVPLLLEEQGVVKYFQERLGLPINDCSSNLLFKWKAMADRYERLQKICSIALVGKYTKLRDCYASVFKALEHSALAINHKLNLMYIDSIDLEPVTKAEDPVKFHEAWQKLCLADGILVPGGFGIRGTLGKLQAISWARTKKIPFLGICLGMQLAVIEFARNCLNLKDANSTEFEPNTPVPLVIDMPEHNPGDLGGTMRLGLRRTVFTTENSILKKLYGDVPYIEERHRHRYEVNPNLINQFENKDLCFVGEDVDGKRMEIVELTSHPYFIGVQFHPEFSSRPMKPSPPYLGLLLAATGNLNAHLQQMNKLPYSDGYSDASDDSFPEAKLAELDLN
UniProt P97434: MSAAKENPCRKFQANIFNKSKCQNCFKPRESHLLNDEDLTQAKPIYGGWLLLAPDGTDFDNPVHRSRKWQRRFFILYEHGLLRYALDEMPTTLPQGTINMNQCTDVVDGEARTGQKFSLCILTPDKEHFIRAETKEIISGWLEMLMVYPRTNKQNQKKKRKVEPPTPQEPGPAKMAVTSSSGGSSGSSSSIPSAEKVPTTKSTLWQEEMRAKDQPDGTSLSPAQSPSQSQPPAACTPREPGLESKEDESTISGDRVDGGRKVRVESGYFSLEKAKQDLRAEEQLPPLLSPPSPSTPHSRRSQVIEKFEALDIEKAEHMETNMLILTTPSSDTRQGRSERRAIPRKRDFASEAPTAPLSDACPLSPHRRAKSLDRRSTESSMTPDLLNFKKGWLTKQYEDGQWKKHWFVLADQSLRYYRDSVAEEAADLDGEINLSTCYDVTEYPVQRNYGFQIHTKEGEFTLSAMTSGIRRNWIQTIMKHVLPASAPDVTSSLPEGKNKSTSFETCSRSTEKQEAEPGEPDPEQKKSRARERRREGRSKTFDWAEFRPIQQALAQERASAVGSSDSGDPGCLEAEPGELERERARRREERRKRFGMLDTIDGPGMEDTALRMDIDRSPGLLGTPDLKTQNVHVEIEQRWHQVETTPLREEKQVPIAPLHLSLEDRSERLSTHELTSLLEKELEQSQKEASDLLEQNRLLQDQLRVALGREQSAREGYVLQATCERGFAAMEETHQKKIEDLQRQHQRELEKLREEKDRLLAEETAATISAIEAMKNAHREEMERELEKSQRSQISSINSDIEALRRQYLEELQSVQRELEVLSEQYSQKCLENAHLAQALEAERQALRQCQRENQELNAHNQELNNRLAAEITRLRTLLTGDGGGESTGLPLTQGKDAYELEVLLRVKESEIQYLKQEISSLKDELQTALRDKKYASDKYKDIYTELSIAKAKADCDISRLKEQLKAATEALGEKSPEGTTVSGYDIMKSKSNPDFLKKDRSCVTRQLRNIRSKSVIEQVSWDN
UniProt P59481: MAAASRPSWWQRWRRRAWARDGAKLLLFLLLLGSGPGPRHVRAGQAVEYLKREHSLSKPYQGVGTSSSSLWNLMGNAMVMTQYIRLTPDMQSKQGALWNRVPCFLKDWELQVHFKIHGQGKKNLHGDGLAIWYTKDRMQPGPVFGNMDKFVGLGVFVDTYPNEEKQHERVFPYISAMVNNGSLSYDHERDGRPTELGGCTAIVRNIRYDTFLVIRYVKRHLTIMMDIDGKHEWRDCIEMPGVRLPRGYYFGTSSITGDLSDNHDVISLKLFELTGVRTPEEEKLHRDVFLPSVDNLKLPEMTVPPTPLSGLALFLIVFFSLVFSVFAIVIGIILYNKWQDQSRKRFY
UniProt P81269: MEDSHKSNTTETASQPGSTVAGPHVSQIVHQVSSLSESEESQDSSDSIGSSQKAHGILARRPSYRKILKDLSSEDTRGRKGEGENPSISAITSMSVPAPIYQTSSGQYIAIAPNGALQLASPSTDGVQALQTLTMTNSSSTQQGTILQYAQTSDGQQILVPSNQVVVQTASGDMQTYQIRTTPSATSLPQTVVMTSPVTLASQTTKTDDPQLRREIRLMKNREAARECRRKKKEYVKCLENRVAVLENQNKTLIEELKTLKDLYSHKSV
UniProt P61028: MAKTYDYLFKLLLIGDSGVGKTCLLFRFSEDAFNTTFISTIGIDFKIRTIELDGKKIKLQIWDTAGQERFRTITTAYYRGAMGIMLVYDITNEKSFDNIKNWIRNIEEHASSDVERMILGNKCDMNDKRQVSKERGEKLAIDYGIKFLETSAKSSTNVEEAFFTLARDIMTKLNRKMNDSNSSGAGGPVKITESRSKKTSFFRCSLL
UniProt P63300, whole entry: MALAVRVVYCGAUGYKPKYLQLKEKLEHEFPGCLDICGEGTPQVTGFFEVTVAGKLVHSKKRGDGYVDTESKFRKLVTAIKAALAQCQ
UniProt P61750: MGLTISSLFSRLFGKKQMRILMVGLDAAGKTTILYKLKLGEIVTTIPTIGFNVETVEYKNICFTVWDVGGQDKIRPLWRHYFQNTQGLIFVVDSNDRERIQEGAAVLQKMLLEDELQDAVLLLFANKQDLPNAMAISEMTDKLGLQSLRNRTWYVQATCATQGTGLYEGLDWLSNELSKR

The list shows a part of the results. Most values lie at the level of the controls, where differences are scatter.
Each target was assayed with CN[C@@H]1C[C@H]2O[C@@](C)([C@@H]1OC)n1c3ccccc3c3c4c(c5c6ccccc6n2c5c31)C(=O)NC4 [staurosporine] (assay: log2 fold change of pooled soluble protein (PISA), ligand vs vehicle (log2 ratio); higher = more thermally stabilized). Settings: ligand concentration: 20 uM; assay format: PISA pool 52.9/55.5/58.6 C.
UniProt P97315 was tested, and the “log2 fold change of pooled soluble protein” value (“log2 fold change” below) was 0.102. In the case of UniProt P62342, the “log2 fold change” value is reported as -0.0414. In the case of P60710;P63260, the “log2 fold change” value is reported as -0.107. For UniProt P62862, the “log2 fold change” value was 0.0949. UniProt P56873 was tested, and the “log2 fold change” value was -0.0305. With UniProt P80313 the “log2 fold change” value was -0.0455. UniProt P70399 was tested, and the “log2 fold change” value was -0.0608. For UniProt P61219, the “log2 fold change” value was 0.0927. UniProt P70195 was tested, and the “log2 fold change” value was -0.0423. UniProt P70336 was tested, and the “log2 fold change” value was 0.594. With UniProt P70274 the “log2 fold change” value was -0.044. In the case of UniProt P97333, the “log2 fold change” value is reported as -0.262. UniProt P57759 was tested, and the “log2 fold change” value was 0.0349. In the case of UniProt P59235, the “log2 fold change” value is reported as 0.0436. P62737;P68033;P68134 was tested, and the “log2 fold change” value was 0.0736. UniProt P97450 was tested, and the “log2 fold change” value was 0.148. For UniProt P70387, the “log2 fold change” value was -0.078. For UniProt P63254, the “log2 fold change” value was 0.165. In the case of UniProt P97355, the “log2 fold change” value is reported as -0.0914. In the case of UniProt P70303, the “log2 fold change” value is reported as 0.0619. UniProt P97434 was tested, and the “log2 fold change” value was -0.176. With UniProt P97471 the “log2 fold change” value was 0.034. In the case of UniProt P59481, the “log2 fold change” value is reported as -0.256. For UniProt P68254, the “log2 fold change” value was 0.0539. With UniProt P63037 the “log2 fold change” value was 0.113. With UniProt P81269 the “log2 fold change” value was -0.115. For UniProt P83741, the “log2 fold change” value was -0.0638. In the case of UniProt P60824, the “log2 fold change” value is reported as -0.0301. For UniProt P70429, the “log2 fold change” value was -0.0126. In the case of UniProt P70207, the “log2 fold change” value is reported as -0.158. For UniProt P61028, the “log2 fold change” value was -0.0612. With UniProt P97352 the “log2 fold change” value was 0.254. For UniProt P63300, the “log2 fold change” value was -0.0917. In the case of UniProt P62748, the “log2 fold change” value is reported as 0.285. For UniProt P97290, the “log2 fold change” value was 0.0532. With UniProt P61750 the “log2 fold change” value was -0.0366. In the case of UniProt P60840, the “log2 fold change” value is reported as -0.000354.

Source: the supplement of paper PMC12819154, “High-throughput peptide-centric local stability assay extends protein–ligand identification to membrane proteins, tissues and bacteria” (Nature Structural & Molecular Biology, 2025)
